Measured values: the supplement of paper PMC3334620
Over roughly 33,000 sequences, “E-score (-0.5 to 0.5)” has its median near -0.016; the highest 2% begin near 0.3. The list shows a part of the results.

These sequences were tested against T1, Yer184c (UniProt P39961) (assay: PBM E-score (8-mer binding enrichment) (E-score (-0.5 to 0.5)); higher = stronger / more preferred TF binding). Details: protein concentration: 100 nM; construct: GST-full length.
T1 sequence: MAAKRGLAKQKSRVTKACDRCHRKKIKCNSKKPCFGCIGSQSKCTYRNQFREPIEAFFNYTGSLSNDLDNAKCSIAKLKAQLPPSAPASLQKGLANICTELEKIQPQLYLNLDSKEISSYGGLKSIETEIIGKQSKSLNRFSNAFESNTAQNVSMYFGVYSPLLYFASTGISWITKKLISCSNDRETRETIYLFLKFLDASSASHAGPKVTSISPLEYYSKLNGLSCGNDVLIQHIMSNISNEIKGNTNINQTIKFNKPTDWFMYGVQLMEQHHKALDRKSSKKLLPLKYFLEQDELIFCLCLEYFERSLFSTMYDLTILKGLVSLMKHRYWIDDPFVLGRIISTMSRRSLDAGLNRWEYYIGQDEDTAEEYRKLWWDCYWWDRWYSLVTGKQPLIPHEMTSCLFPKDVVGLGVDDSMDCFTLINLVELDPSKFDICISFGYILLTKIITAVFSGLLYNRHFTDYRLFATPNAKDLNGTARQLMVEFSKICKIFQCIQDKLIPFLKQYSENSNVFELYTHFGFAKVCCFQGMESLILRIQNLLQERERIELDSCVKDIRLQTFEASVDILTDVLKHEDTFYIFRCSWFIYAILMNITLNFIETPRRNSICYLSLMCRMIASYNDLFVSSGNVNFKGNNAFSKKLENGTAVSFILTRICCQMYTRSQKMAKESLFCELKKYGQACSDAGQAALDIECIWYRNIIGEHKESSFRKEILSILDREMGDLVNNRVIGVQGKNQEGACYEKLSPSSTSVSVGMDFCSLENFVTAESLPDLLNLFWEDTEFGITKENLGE
Outline: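 GST-tagged yeast TFs (full-length or DNA-binding domain) were made by PURExpress in vitro transcription/translation and applied at about 100-200 nM to universal all-10-mer Agilent arrays. The arrays were made double-stranded by primer extension, on fresh or once-stripped slides. Bound protein was detected with fluorescent anti-GST, and scans were normalised with masliner. Each ungapped eight-base word, pooled with its reverse complement, received an E-score (modified Wilcoxon-Mann-Whitney statistic) from the Universal PBM Analysis Suite.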

| Sequence | PBM E-score |
| --- | --- |
| ATGGGCGA | -0.242 |
| ACTATGAA | -0.0044 |
| CGCAGCTC | -0.167 |
| GCGTCTAA | -0.0135 |
| AAATACTC | 0.184 |
| AGGTCGCG | -0.0119 |
| CGAGAGGC | -0.21 |
| ACCTACCA | -0.255 |
| CGCTAGAA | -0.00437 |
| ATGGCGGG | 0.00659 |
| CGGCAGCA | 0.0779 |
| TCGTGGCA | -0.00509 |
| CGACTTCC | -0.124 |
| GCGCTTAA | -0.112 |
| ACACTGGA | 0.0234 |
| GCTGTATA | -0.0828 |
| AACGCCGT | 0.119 |
| AATCAGCG | 0.164 |
| CCTATTGC | -0.119 |
| AAATACCT | -0.105 |
| AAATTCTC | 0.0709 |
| GCATGGGA | -0.159 |

| Sequence | PBM E-score |
| --- | --- |
| CGACCTGA | -0.00346 |
| GATCCCAA | -0.16 |
| GAAGGTTA | 0.0472 |
| ATAACTTC | 0.202 |
| GCCACTGA | -0.0754 |
| CCCTTGAG | 0.0101 |
| AAGGAGGA | -0.0377 |
| CCATAACG | 0.0326 |
| GGAAAATA | 0.239 |
| GAGCCTGA | -0.133 |
| AACGTCTA | 0.0553 |
| GACATACA | 0.0469 |
| ACTAACTG | -0.0468 |
| GTAGAGGA | -0.122 |
| CATTTGTC | 0.0286 |
| GCCAGAGA | -0.0888 |
| CATGAGGG | -0.212 |
| CATACTGA | -0.0139 |
| ACCCTCGG | 0.211 |
| CAATGCTA | -0.00612 |
| CGTTTGCA | 0.0194 |
| CCGCTCGC | 0.124 |

Looked up one by one from the entries so far:

| Sequence | PBM E-score |
| --- | --- |
| CGAGAGGC | -0.21 |
| GAGCCTGA | -0.133 |
| CCTATTGC | -0.119 |

(listing goes on)

| Sequence | PBM E-score |
| --- | --- |
| CAAGGAAC | 0.168 |
| AGGCCAAA | 0.0579 |
| CTGTCGAA | -0.118 |
| AGTGATAA | 0.0452 |
| GCTTAAGA | 0.0346 |
| AAGATTCG | 0.226 |
| AAAGCAAG | 0.14 |
| AGCTAACG | -0.0595 |
| CTCAAGGA | 0.0167 |
| AAGCGCTG | 0.0039 |
| TCAGCCGA | 0.272 |
| ACCCATAG | -0.342 |
| AAGACCTC | -0.208 |
| GCAGGACA | 0.11 |
| CTGTTACA | 0.0127 |
| CCTCGCTA | -0.277 |
| ATATAAGA | 0.213 |
| ACCCGTTA | 0.106 |
| AAATAAGA | 0.154 |
| ATCGTAAG | -0.143 |
| CCCGCGAA | -0.0181 |
| ACTGCCGC | 0.214 |

| Sequence | PBM E-score |
| --- | --- |
| AGTAAAAC | -0.0175 |
| CGTGCATC | -0.225 |
| GAAGATCC | 0.0722 |
| CAGCTAGA | -0.109 |
| AACGTTTG | -0.0728 |
| CATAGAAC | -0.208 |
| AGATAACA | 0.0929 |
| GTGCTCTA | -0.102 |
| ATGCAGAC | -0.0797 |
| TCAGGCAA | -0.158 |
| CCCATGAA | -0.132 |
| CTTCCAAA | 0.0435 |
| CGGAGCTC | 0.104 |
| CCTTTTAC | 0.0344 |
| AACAAATG | -0.0255 |
| ACTTAGAT | 0.109 |
| GGACATAC | 0.12 |
| ATCATATG | 0.147 |
| AAGTCTGG | -0.131 |
| CAGCAGCA | -0.147 |
| AGTCTGCA | -0.197 |
| GATAACGA | -0.0402 |

Given as tab-separated lines: part of the list above
Sequence	PBM E-score
ATATAAGA	0.213
ACCCGTTA	0.106
AAATAAGA	0.154
ATCGTAAG	-0.143
CCCGCGAA	-0.0181
ACTGCCGC	0.214
AGTAAAAC	-0.0175
CGTGCATC	-0.225
GAAGATCC	0.0722
CAGCTAGA	-0.109
AACGTTTG	-0.0728
CATAGAAC	-0.208
AGATAACA	0.0929
GTGCTCTA	-0.102
ATGCAGAC	-0.0797
TCAGGCAA	-0.158
CCCATGAA	-0.132
CTTCCAAA	0.0435
CGGAGCTC	0.104
CCTTTTAC	0.0344
AACAAATG	-0.0255
ACTTAGAT	0.109
GGACATAC	0.12
ATCATATG	0.147
AAGTCTGG	-0.131

Next records follow.

| Sequence | PBM E-score |
| --- | --- |
| GACTCGCA | -0.108 |
| ATGTAGAG | -0.0432 |
| ATCCATCG | -0.124 |
| CCCTCTAG | -0.336 |
| CACAATGA | -0.0364 |
| CAAAATTG | -0.0804 |
| CCCTCTGC | -0.376 |
| CCGATACA | 0.168 |
| AATGGCGG | 0.013 |
| CTCAAACC | -0.0293 |
| ATGCTGCG | -0.277 |
| CGAGGGAG | -0.164 |
| CACAGTAG | 0.0246 |
| CCATCTTA | 0.0202 |
| GTACAGAC | 0.0782 |
| ACTAGTTG | -0.244 |
| AATCGGTC | 0.147 |
| ATAAAACA | 0.0824 |
| CGCCACAC | -0.2 |
| ACCTCGTA | -0.0386 |
| CCATAGCA | -0.25 |
